For the assay, the target named is T1, His-tagged caspase-12Δ, intact form (42 kDa), partially purified from E. coli (mouse) (UniProt O08736).
T1 sequence: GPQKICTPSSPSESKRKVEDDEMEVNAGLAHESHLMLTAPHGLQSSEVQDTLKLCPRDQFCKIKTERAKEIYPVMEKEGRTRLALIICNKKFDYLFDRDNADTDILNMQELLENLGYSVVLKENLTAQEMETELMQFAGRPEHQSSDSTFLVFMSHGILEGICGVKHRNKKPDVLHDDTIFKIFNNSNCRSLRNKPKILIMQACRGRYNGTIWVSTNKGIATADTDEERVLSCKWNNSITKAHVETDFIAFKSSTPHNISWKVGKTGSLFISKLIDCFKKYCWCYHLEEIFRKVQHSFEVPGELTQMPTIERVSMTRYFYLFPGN
The experiment in a line: co-purification with the His-tagged protein on a Ni column; chains identified by microsequencing.

Results are given in words; binding and its absence hold for the method and conditions named. Binding seen in cells or lysates may run through a third protein. Some binding calls cover weakened binding; strength is not graded here. Tags and fused reporters may be left off the sequences shown.

B1: small subunit (10 kDa) of caspase-12Δ, starting right after Asp318 (protein)
chain: TDEERVLSCKWNNSITKAHVETDFIAFKSSTPHNISWKVGKTGSLFISKLIDCFKKYCWCYHLEEIFRKVQHSFEVPGELTQMPTIERVSMTRYFYLFPGN
As to B1, the binding entry was “binds”.

Source of the values: patent US6642368B1, “Programmed cell death and caspase-12” (The General Hospital Corporation, priority 1998, dated 2003).
